According to patent US5861477A (priority 1996, dated 1999):
Some peptides are written in HELM: one residue between dots, names in brackets for other building blocks, links after the first $.

Experiment: general procedure: Fmoc solid-phase peptide synthesis; benzyloxybenzyl alcohol resin (Wang resin) with Fmoc-S-tert-butylcysteine coupled
Details: for step yield: purification step, of the monomer; for cyclisation yield: cyclisation step

Substance	step yield	cyclisation yield
PEPTIDE1{C.E.G.V.H.F.D.A.S.G.G.T.N.V.P.K.G.G.E.H.G.F.K.C}$PEPTIDE1,PEPTIDE1,1:R3-24:R3$$$V2.0	12.2%	–
PEPTIDE1{C.G.F.H.F.G.G.S.D.G.M.G.S.S.G.G.V.S.W.G.I.G.G.D.G.A.A.H.C}$PEPTIDE1,PEPTIDE1,1:R3-29:R3$$$V2.0	12.1%	26.7%
PEPTIDE1{C.T.N.R.N.G.G.D.G.G.L.E.I.N.G.W.W.G.G.I.G.D.G.D.G.A.W.V.A.G.R.G.F.E.S.N.C}$PEPTIDE1,PEPTIDE1,1:R3-37:R3$$$V2.0	12.9%	–
cyclo(-S-cystinyl-glycyl-tyrosyl-histidyl-phenylalanyl-glycyl-glycyl-seryl- aspartyl-glycyl-glutamyl-glycyl-seryl-aspartyl-glycyl-glycyl-valyl-seryl-tryptophanyl-glycyl-leucyl-glycyl-glycyl-aspartyl-glycyl-alanyl-alanyl-histidyl-cystinyl-S) (CGYHFGGSDGEGSDGGVSWGLGGDGAAHC; cyclic)	11.5%	33.2%
